Some entries share one result that the patent states for a list of compounds.
System: S. aureus NCTC 8325
Type: cell-based, Staphylococcus aureus
Details: sub-inhibitory concentration for 30 consecutive days

Row | Structure (SMILES) | fold MIC change (resistance)
1 | CC1(C)S[C@@H]2[C@H](NC(=O)[C@H](N)c3ccccc3)C(=O)N2[C@H]1C(=O)O [Ampicillin] | over 64 fold
2 | CC[C@H]1OC(=O)[C@H](C)[C@@H](O[C@H]2C[C@@](C)(OC)[C@@H](O)[C@H](C)O2)[C@H](C)[C@@H](O[C@@H]2O[C@H](C)C[C@H](N(C)C)[C@H]2O)[C@](C)(O)C[C@@H](C)C(=O)[C@H](C)[C@@H](O)[C@]1(C)O [Erythromycin] | over 64 fold

Reference: patent US10800732B2, “Substituted malonamides and their use as antibacterial drugs” (National Taiwan University, priority 2015, dated 2020)
